Measured data: PubChem BioAssay AID504804 (Drosophila RNAi Screening Center, 2011)

Assay: 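Fly genes whose loss lessens doxorubicin-driven cell death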 (primary screen)
System: Drosophila Kc cells
Knock-down reagent: long dsRNA against Drosophila genes, 0.5 µg dsRNA per well
Time to read-out: 96 h (48 h knock-down, then 48 h drug)
Conditions: doxorubicin 5 µg/ml for 48 h, added 48 h after dsRNA
Measured: 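Viability measured as cellular ATP by luminescence after 48 h knock-down then 48 h doxorubicin at 5 µg/ml; unnormalised plate counts for each replicate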
Direction: raw ATP luminescence: higher = more viable cells, protection from doxorubicin
Call rule: 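Active when both duplicate wells lie at least 2 SD above the plate mean and protection is confirmed by rescreening and independent dsRNAs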
The deposit covers about 19,000 reagents; this is an unselected part of those with a known target gene and a result. Over the whole deposit, 47 (0.25%) got an active call. 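Signals are raw, not normalised; exact z-scores behind calls not deposited; actives needed confirmation, so some wells reaching 2 SD are inactive.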 Names joined by + are all predicted targets of the reagent. No sequences are given here.

predicted target | PubChem SID | raw ATP luminescence, replicate 1 | raw ATP luminescence, replicate 2 | Outcome
Mical (GeneID 41225) | SID104194141 | 36943 | 59093 | inactive
Mical (GeneID 41225) | SID104194143 | 35367 | 57997 | inactive
Mical (GeneID 41225) | SID104195157 | 36507 | 51047 | inactive
Mical (GeneID 41225) | SID104195158 | 36010 | 59400 | inactive
lilli (GeneID 33496) | SID104180500 | 1.48e5 | 93680 | inactive
CG12071 (GeneID 43660) | SID104194263 | 12230 | 11730 | inactive
CG31638 (GeneID 33910) | SID104182061 | 23253 | 21017 | inactive
CG31638 (GeneID 33910) | SID104183051 | 22793 | 28503 | inactive
Sbat (GeneID 319043) | SID104179952 | 2.97e5 | 2.79e5 | inactive
CG42729 (GeneID 3885667) | SID104190028 | 56030 | 49543 | inactive
CG3165 (GeneID 33503) | SID104180365 | 1.12e5 | 67097 | inactive
CG33234 (GeneID 2769006) | SID104187786 | 1.44e5 | 1.45e5 | inactive
cav (GeneID 42881) | SID104195787 | 42500 | 42323 | inactive
CG12116 (GeneID 31782) | SID104197604 | 39010 | 51250 | inactive
CG14384 (GeneID 41588) | SID104194634 | 1.29e5 | 76330 | inactive
CG4073 (GeneID 41284) | SID104195334 | 60663 | 74727 | inactive
kek2 (GeneID 34582) | SID104183344 | 35990 | 58237 | inactive
CG33453 (GeneID 2768851) | SID104185574 | 1.74e5 | 1.18e5 | inactive
Mhcl (GeneID 41955) | SID104192922 | 2.16e5 | 2.27e5 | inactive
Mhcl (GeneID 41955) | SID104194008 | 57910 | 76250 | inactive
Mhcl (GeneID 41955) | SID104196545 | 84560 | 81640 | inactive
AttA (GeneID 36636) | SID104185718 | 97123 | 49527 | inactive
ana2 (GeneID 35878) | SID104185744 | 66630 | 61877 | inactive
CG11089 + CG31381 | SID104193482 | 1.81e5 | 1.95e5 | inactive
CG11089 + CG31381 | SID104194082 | 33173 | 43630 | inactive
CG3748 (GeneID 34252) | SID104182508 | 49240 | 65017 | inactive
Ilp1 (GeneID 39149) | SID104189966 | 60850 | 73597 | inactive
BtbVII (GeneID 38376) | SID104188207 | 46053 | 85403 | inactive
CG30222 (GeneID 50129) | SID104183917 | 77937 | 96637 | inactive
CG30222 (GeneID 50129) | SID104184054 | 57237 | 52623 | inactive
CG33631 (GeneID 3771784) | SID104192555 | 67877 | 59167 | inactive
CG17219 (GeneID 33515) | SID104180278 | 23080 | 18153 | inactive
SerRS-m (GeneID 41862) | SID104193888 | 95160 | 85040 | inactive
CG6845 (GeneID 38019) | SID104188368 | 63727 | 84113 | inactive
CG17159 + CG17162 | SID104200691 | 2.69e5 | 3.25e5 | inactive
CG17159 + CG17162 | SID104200692 | 3.16e5 | 3.23e5 | inactive
CG13601 (GeneID 42826) | SID104194396 | 48697 | 63923 | inactive
Atg6 (GeneID 42850) | SID104195590 | 33227 | 50823 | inactive
CG1792 (GeneID 43727) | SID104195082 | 80720 | 59350 | inactive
frac (GeneID 38850) | SID104190659 | 45030 | 45833 | inactive
CG3566 (GeneID 31562) | SID104198103 | 49170 | 53990 | inactive
bark (GeneID 33604) | SID104180427 | 28333 | 31100 | inactive
Alp6 (GeneID 35981) | SID104186502 | 52443 | 60933 | inactive
NaPi-III (GeneID 39255) | SID104190685 | 45710 | 43163 | inactive
NaPi-III (GeneID 39255) | SID104190686 | 67387 | 45507 | inactive
Timp (GeneID 41248) | SID104196874 | 49403 | 19583 | inactive
pHCl-2 (GeneID 43703) | SID104194098 | 45700 | 54600 | inactive
CG4480 (GeneID 34864) | SID104182542 | 59563 | 54340 | inactive
CG11293 (retired record) (GeneID 37745) | SID104183890 | 50157 | 44283 | inactive
Prx6a (GeneID 33493) | SID104180357 | 1.41e5 | 85117 | inactive
cDIP (GeneID 42512) | SID104194059 | 47460 | 31313 | inactive
CG15373 (GeneID 32784) | SID104199455 | 3.65e5 | 3.39e5 | inactive
CG32075 (GeneID 326192) | SID104190414 | 75013 | 78850 | inactive
Ir75a (GeneID 39982) | SID104189980 | 97517 | 56460 | inactive
CG32473 (GeneID 41636) | SID104194144 | 84240 | 86980 | inactive
CG32473 (GeneID 41636) | SID104196238 | 51037 | 28740 | inactive
Idgf3 (GeneID 34981) | SID104183143 | 1.07e5 | 66383 | inactive
tgo (GeneID 41084) | SID104196869 | 86220 | 42003 | inactive
MED20 (GeneID 43952) | SID104183255 | 40157 | 75377 | inactive
ND-B18 (GeneID 32434) | SID104199739 | 3.51e5 | 2.83e5 | inactive
CG10395 (GeneID 35490) | SID104184632 | 79403 | 78617 | inactive
CG31997 (GeneID 319064) | SID104196897 | 2.73e5 | 2.41e5 | inactive
CG8435 (GeneID 36789) | SID104186971 | 53803 | 62493 | inactive
CG10019 (GeneID 33600) | SID104180071 | 19423 | 16800 | inactive
AOX1 (GeneID 41894) | SID104195131 | 39957 | 25473 | inactive
CG31546 (GeneID 40691) | SID104192109 | 97193 | 33380 | inactive
Mst85C (GeneID 41089) | SID104196538 | 71377 | 61963 | inactive
dlp (GeneID 39596) | SID104190073 | 13747 | 12037 | inactive
dlp (GeneID 39596) | SID104190264 | 69903 | 55580 | inactive
ETHR (GeneID 42523) | SID104195707 | 26840 | 22090 | inactive
CG15169 (GeneID 35161) | SID104182262 | 58423 | 77523 | inactive
CG1571 (GeneID 31725) | SID104197860 | 26130 | 38730 | inactive
Theg (GeneID 42585) | SID104195815 | 43890 | 53110 | inactive
CG34012 (GeneID 3885632) | SID104188881 | 1.77e5 | 1.24e5 | inactive
Agpat3 (GeneID 39820) | SID104190237 | 24697 | 22450 | inactive
CG31809 (GeneID 318954) | SID104181353 | 2.76e5 | 2.39e5 | inactive
PEK (GeneID 40653) | SID104192153 | 55247 | 32363 | inactive
CG31798 (GeneID 318946) | SID104181494 | 2.86e5 | 2.60e5 | inactive
Ced-12 (GeneID 34633) | SID104182632 | 53560 | 72617 | inactive
gammaSnap2 (GeneID 41239) | SID104195784 | 55893 | 53320 | inactive
CSN4 (GeneID 35759) | SID104187142 | 27627 | 55223 | inactive
CG14861 (GeneID 41810) | SID104194776 | 85270 | 77060 | inactive
AIMP1 (GeneID 35892) | SID104186910 | 48807 | 99100 | inactive
Dhps (GeneID 38917) | SID104190740 | 76487 | 82003 | inactive
Ggamma1 (GeneID 35881) | SID104187227 | 66810 | 68700 | inactive
NSD (GeneID 43351) | SID104195483 | 52350 | 36050 | inactive
Or1a (GeneID 30978) | SID104198481 | 67510 | 47760 | inactive
CG4496 (GeneID 34000) | SID104182545 | 23540 | 38963 | inactive
CG7706 (GeneID 42244) | SID104196087 | 46407 | 60140 | inactive
CG31019 (GeneID 318558) | SID104193786 | 2.84e5 | 2.79e5 | inactive
CG13124 (GeneID 34310) | SID104182012 | 85133 | 74193 | inactive
Gem4b + Gem4c | SID104197086 | 1.90e5 | 1.69e5 | inactive
heph (GeneID 48571) | SID104193874 | 3.15e5 | 3.20e5 | inactive
heph (GeneID 48571) | SID104193877 | 3.25e5 | 2.76e5 | inactive
heph (GeneID 48571) | SID104195228 | 27340 | 33320 | inactive
heph (GeneID 48571) | SID104196575 | 47710 | 62240 | inactive
CG5888 (GeneID 34980) | SID104181721 | 96063 | 64773 | inactive
Cpr65Az (GeneID 38712) | SID104189674 | 71507 | 84560 | inactive
ppk16 (GeneID 3885612) | SID104182528 | 35520 | 74427 | inactive
CG32354 (GeneID 50302) | SID104190555 | 39710 | 30147 | inactive
CG32354 (GeneID 50302) | SID104190567 | 84860 | 94053 | inactive
PpD5 (GeneID 44148) | SID104184433 | 69063 | 87720 | inactive
CG13627 (GeneID 42941) | SID104194421 | 47110 | 45930 | inactive
Su(fu) (GeneID 41565) | SID104196663 | 70470 | 43900 | inactive
Hpf1 (GeneID 40718) | SID104191994 | 88233 | 35970 | inactive
Obp57e (GeneID 326110) | SID104185683 | 1.25e5 | 1.04e5 | inactive
Axs (GeneID 32645) | SID104199125 | 3.21e5 | 3.19e5 | inactive

Copied from the list.
CSN4 (GeneID 35759) [SID104187142], raw ATP luminescence, replicate 2 → 55223
Under “raw ATP luminescence, replicate 2”, heph (GeneID 48571) [SID104193877] has 2.76e5
Value for kek2 (GeneID 34582) [SID104183344] in “Outcome”: inactive
heph (GeneID 48571) [SID104195228], raw ATP luminescence, replicate 1 → 27340
Under “Outcome”, CG42729 (GeneID 3885667) [SID104190028] reads inactive
Under “Outcome”, Dhps (GeneID 38917) [SID104190740] has inactive
